Results taken from patent publication US20130295173A1, “COMPOSITIONS OF STATINS AND OMEGA-3 FATTY ACIDS” (OMTHERA PHARMACEUTICALS, INC., priority 2012, published 2013).
For at least one compound, name, drawing or mass did not settle the structure.

Assay: Solubility of statins in omega-3 ethyl ester solvent system (Lovaza fill)
Conditions: comparison of Tables 5 and 6

In the case of `CC(C)c1nc(N(C)S(C)(=O)=O)nc(-c2ccc(F)cc2)c1/C=C/[C@@H](O)C[C@@H](O)CC(=O)[O-].CC(C)c1nc(N(C)S(C)(=O)=O)nc(-c2ccc(F)cc2)c1/C=C/[C@@H](O)C[C@@H](O)CC(=O)[O-].[Ca+2]` [Rosuvastatin Calcium, rosuvastatin calcium], the “Solubilization in PUFA free acid solvent system compared with PUFA ethyl ester solvent system” value is reported as “solubilized to a significantly greater extent”.
